What was measured:
IgA = assay: ELISA assay compatibility of preservatives: IgA detection; set-up: species or system human; settings: in SDJ; FIGS. 46, 48
IgM = assay: ELISA assay compatibility of preservatives: IgM detection; set-up: species or system human; settings: in SDJ; FIGS. 47, 49

## Cc1ccc(S(=O)(=O)N[C@@H](Cc2ccccc2)C(=O)CCl)cc1 [TPCK, N-p-Tosyl-L-phenylalanine chloromethyl ketone]
IgA
  effect on IgA detection by ELISA: no impact
IgM
  effect on IgM detection by ELISA: no impact
